Laboratory results published in publication PMC6872521, “An in silico—in vitro Pipeline Identifying an HLA-A^*02:01^+ KRAS G12V^+ Spliced Epitope Candidate for a Broad Tumor-Immune Response in Cancer Patients” (Frontiers in Immunology, 2019).

Tested on: 20S standard proteasomes
Assay: In vitro digestion of synthetic KRAS2−35 polypeptides by 20S proteasomes, MS detection of peptide products
Assay type: biochemical
Conditions: for Generation by 20S proteasomes from synthetic KRAS2−35 polypeptide: 40 μM polypeptide, 3 μg 20S proteasomes, 100 μl TEAD buffer, 37°C, 20 h, targeted MS

Substance | Generation by 20S proteasomes from synthetic KRAS2−35 polypeptide | Amount produced in digestion kinetics (KRAS2−35 G12V polypeptide, 20S proteasomes, 0–4 h kinetics, quantified by titration of synthetic peptides)
[KL][VVGAVGV] [KRAS5−6/8−14 G12V] | is generated by proteasomes | produced in amounts smaller than the average amount of spliced peptides
[KL][VVGAGGV] [KRAS5−6/8−14 G12] | not produced by 20S proteasomes | –
